Data from patent publication US11970551 (dated 2024).
The star is where a group is joined. Trt = c1ccc(C(c2ccccc2)(c2ccccc2)*)cc1; Fmoc = O=C(OCC1c2ccccc2-c2ccccc21)*; OtBu = CC(C)(C)O*; For = O=C*

Key:
[1] = general procedure: solution-phase peptide synthesis; EDC.HCl/HOBt.H2O/DIPEA; DCC/HOAt
[2] = solution-phase peptide synthesis; EDC.HCl/HOBt.H2O/DIPEA; DCC/HOAt; conditions: late stage modification step, global deprotection of SEQ ID NO 15

Fmoc-MD(OtBu)GC(Trt)E(OtBu)L-OtBu
final purity (method not given) ([1]; purification step): 95.4%
step yield ([1]; purification step): 78%

Boc-Met-Asp(OtBu)-Gly-Cys(ψ^Me,MePro)-Glu(OtBu)-Leu-OtBu
crude LC-MS purity ([1]; coupling step): 84% (LCMS)
step yield ([1]; coupling step, based on a purity of 84%): 76% yield

For-MD(OtBu)GC(Trt)E(OtBu)L-OtBu
purity (crude or final not stated) ([1]; late stage modification step): between 67.5-77.2%
step yield ([1]; late stage modification step): 75-83%

Cbz-Gly-Cys(ψMe,MePro)-Glu(OtBu)-Leu-OtBu
crude LC-MS purity ([1]; coupling step): 76 area %
crude purity (method not given) ([1]; coupling step): 70%
step yield ([1]; coupling step, based on 70% purity): 58% yield

H-Gly-Cys(ψ^Me,MePro)-Glu(OtBu)-Leu-OtBu
crude LC-MS purity ([1]; late stage modification step): 80% purity
step yield ([1]; late stage modification step): 79% yield

For-MDGCEL-OH
step yield [2]: 97%
final purity (method not given) ([1]; late stage modification step): 97.6%
step yield ([1]; late stage modification step): 97%
step yield ([1]; purification step): >90%
final purity (method not given) ([1]; purification step, run 1): app 97%
final purity (method not given) ([1]; purification step, run 2): app. 97%
